In paper PMC8892947:
Substitutions are numbered along the chain they refer to. For some of these results: At least one verdict was read from the data and is not stated in words by the source. Tags and fusion partners may be left off the protein sequences shown.

Legend:
[1] = molecular target: T1, CL11 (uL11 C-terminal RNA-binding domain, wild type) (Bacillus stearothermophilus) (UniProt P56210); experiment: pull-down; settings: without Mg2+ and K+, stability unchanged; Buffer R: 30 mM Tris pH 7.9, 20 mM MgCl2, 175 mM KCl; recombinant protein; protein details: N-terminal MHHHHHH; label: 5' biotin-TEG
T1 sequence (looked up, limits assumed): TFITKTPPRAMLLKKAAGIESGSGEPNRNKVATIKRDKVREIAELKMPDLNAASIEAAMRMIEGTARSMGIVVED

[2] = molecular target: T2, CL11-M N85G,N87L,M105R,N109S,M117I,M119T,M127V (Bacillus stearothermophilus (mRNA display variant)) (UniProt P56210); experiment: pull-down; settings: without Mg2+ and K+, stability unchanged; Buffer R: 30 mM Tris pH 7.9, 20 mM MgCl2, 175 mM KCl; recombinant protein; protein details: N-terminal MHHHHHH; label: 5' biotin-TEG
T2 sequence (looked up, limits assumed): T1 sequence (looked up, limits assumed) with M11V, N27G, N29L, M47R, N51S, M59I, M61T, M69V

[3] = molecular target: T1, CL11 (uL11 C-terminal RNA-binding domain, wild type) (Bacillus stearothermophilus); experiment: SPR; settings: kon 1.2e4 1/Ms, koff 3.0e-4 1/s, 20 mM Mg2+, 175 mM K+; Buffer R: 30 mM Tris pH 7.9, 20 mM MgCl2, 175 mM KCl; SPR in buffer R + 0.1% Triton X-100; recombinant protein; protein details: N-terminal MHHHHHH; label: 5' biotin-TEG
[4] = molecular target: T2, CL11-M N85G,N87L,M105R,N109S,M117I,M119T,M127V (Bacillus stearothermophilus (mRNA display variant)); experiment: SPR; settings: kon 1.9e4 1/Ms, koff 4.5e-4 1/s, 20 mM Mg2+, 175 mM K+; Buffer R: 30 mM Tris pH 7.9, 20 mM MgCl2, 175 mM KCl; SPR in buffer R + 0.1% Triton X-100; recombinant protein; protein details: N-terminal MHHHHHH; label: 5' biotin-TEG
[5] = molecular target: T1, CL11 (uL11 C-terminal RNA-binding domain, wild type) (Bacillus stearothermophilus); experiment: EMSA; settings: 2 uM each, 1:1; Buffer R: 30 mM Tris pH 7.9, 20 mM MgCl2, 175 mM KCl; EMSA 1 h at room temperature; recombinant protein; protein details: N-terminal MHHHHHH; label: 5' fluorescein-Spacer9
[6] = molecular target: T2, CL11-M N85G,N87L,M105R,N109S,M117I,M119T,M127V (Bacillus stearothermophilus (mRNA display variant)); experiment: EMSA; settings: 2 uM each, 1:1; Buffer R: 30 mM Tris pH 7.9, 20 mM MgCl2, 175 mM KCl; EMSA 1 h at room temperature; recombinant protein; protein details: N-terminal MHHHHHH; label: 5' fluorescein-Spacer9
[7] = molecular target: T1, CL11 (uL11 C-terminal RNA-binding domain, wild type) (Bacillus stearothermophilus); experiment: RNase A protection; settings: Buffer R: 30 mM Tris pH 7.9, 20 mM MgCl2, 175 mM KCl, recombinant protein, protein details: N-terminal MHHHHHH, label: 5' fluorescein-Spacer9
[8] = molecular target: T2, CL11-M N85G,N87L,M105R,N109S,M117I,M119T,M127V (Bacillus stearothermophilus (mRNA display variant)); experiment: RNase A protection; settings: Buffer R: 30 mM Tris pH 7.9, 20 mM MgCl2, 175 mM KCl, recombinant protein, protein details: N-terminal MHHHHHH, label: 5' fluorescein-Spacer9
[9] = molecular target: T1, CL11 (uL11 C-terminal RNA-binding domain, wild type) (Bacillus stearothermophilus); experiment: native IM-MS; settings: 9+ complex 3100 m/z, CCS 2100 A2; Buffer R: 30 mM Tris pH 7.9, 20 mM MgCl2, 175 mM KCl; recombinant protein; protein details: N-terminal MHHHHHH
[10] = molecular target: T2, CL11-M N85G,N87L,M105R,N109S,M117I,M119T,M127V (Bacillus stearothermophilus (mRNA display variant)); experiment: native IM-MS; settings: 9+ complex 3084 m/z, CCS 2080 and 1920 A2; Buffer R: 30 mM Tris pH 7.9, 20 mM MgCl2, 175 mM KCl; recombinant protein; protein details: N-terminal MHHHHHH
[11] = molecular target: T2, CL11-M N85G,N87L,M105R,N109S,M117I,M119T,M127V (Bacillus stearothermophilus (mRNA display variant)); experiment: Lon protease protection; settings: Buffer R: 30 mM Tris pH 7.9, 20 mM MgCl2, 175 mM KCl; recombinant protein; protein details: N-terminal MHHHHHH

GCCAGGAUGUAGGCUUAGAAGCAGCCAUCAUUUAAAGAAAGCGUAAUAGCUCACUGGU [biotinylated 58rRNA]
binding result [1]: binds
binding result [2]: binds
Kd [3]: 25 nM
Kd [4]: 24 nM

GCCAGGAUGUAGGCUUAGAAGCAGCCAUCAUUUAAAGAAAGCGUAAUAGCUCACUGGU [f58rRNA]
binding result [5]: binds
binding result [6]: binds
binding result ([7]; 20 mM EDTA, buffer R, 30 C): binds
binding result ([7]; Lon buffer, 37 C): binds
binding result ([8]; 20 mM EDTA, buffer R, 30 C): binds
binding result ([8]; Lon buffer, 37 C): binds

GCCAGGAUGUAGGCUUAGAAGCAGCCAUCAUUUAAAGAAAGCGUAAUAGCUCACUGGU [58rRNA (label not stated)]
binding result [9]: binds
binding result [10]: binds
binding result [11]: binds
